We go through 38 compounds from PubChem BioAssay AID2685 (National Center for Advancing Translational Sciences (NCATS), 2010).

The assay in a line: qHTS Assay for Lipid Storage Modulators in Drosophila S3 Cells.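 As to cell number change: cells counted by Cell Tracker Red CMTPX staining in the red channel.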 The settings on record: BODIPY lipid droplet fluorescence, 18-24 h; for cell number change: measured here: cell count max response, cells fed with added oleic acid. A digest of the protocol: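 Laser-scanning cytometry quantifies lipid droplet accumulation (500–530 nm total intensity; droplet/cell object ratio) in oleic acid-fed (400 uM added) Drosophila S3 cells treated with a concentration series. 20 uM Triacsin C defined 100% inhibition.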
On the technique in general: qHTS replaces the single test concentration by a dilution series.

[1] abbreviates: measured here: cell number channel AC50, cells fed with added oleic acid.
Setting [2] is: measured here: lipid fluorescence (Fed channel) AC50, cells fed with added oleic acid.

SMILES strings stand for the structures. This is one part of the list. Shown are side measurements of this screen, not its main read-out; they come without a call. The list favours compounds with an active or inconclusive main result. The note in brackets gives the kind of curve behind each potency; many fits are weak.

A word on the AC50: it is the concentration giving half of the maximal activity seen. Higher therefore signals activity only at high concentration.

Take `CCOc1ccc(CCNC(=O)c2[nH]c(C)c(C(C)=O)c2CC)cc1OCC`: the cell number change was 33.2%. For the same compound, the AC50 under setting [1] was 11.6 µM [rising, partial curve].
For the compound `Cc1ccc(C(=O)N/C(=C\c2cn(C)c3ccccc23)C(=O)NCCCn2ccnc2)cc1`, the cell number change is 4.48%. Moreover, under setting [2], the AC50 was 0.58 µM [rising, single point].
Take `CCOC(=O)[C@H]1[C@H]2COc3ccc(Br)cc3[C@@H]2N2C(=O)c3cc(F)c(F)cc3NC(=O)[C@@]12C`: the cell number change is -32.8%. Further, under setting [1], the AC50 was 20.6 µM [falling, single point].
Take `Cc1cccn2c(=O)c(C=O)c(N3CCC4(CC3)OCCO4)nc12`: the cell number change was found to be 31.4%.
For the compound `CN(C)Cc1c(O)c(Cl)cc2c3c(c(=O)oc12)CCCC3`, the cell number change was determined as 16.6%. Under setting [2], the AC50 was 1.46 µM [falling, partial curve].
In the case of `CCn1c(SCC(=O)Nc2ccc(Br)cc2)nc2sc3c(c2c1=O)CCN(C)C3`, the cell number change stood at 1.19%. Further, under setting [2], the AC50 is 0.146 µM [falling, partial curve, poor fit].
On to `NS(=O)(=O)c1ccc(CCNC(=O)COC(=O)Cc2ccc([N+](=O)[O-])cc2)cc1`, for which the cell number change worked out at 18.1%. The AC50 under setting [1] is 2.91 µM [falling, single point].
Regarding `O=C(C1=C(O)C(=O)N(CCN2CCOCC2)C1c1ccco1)c1cc2ccccc2o1` (stereo not drawn), the cell number change was 1.13%. Besides, the AC50 under setting [2] is 29.1 µM [rising, single point].
Regarding `Cc1cc(C(=O)Nc2ccon2)c(C)o1`, the cell number change came to 13.7%. Also, the AC50 under setting [1] was 6.51 µM [rising, single point]. Also, the AC50 under setting [2] is 0.116 µM [rising, full curve, poor fit].
Turning to `O=C(COc1cccc(NC(=O)c2cccc([N+](=O)[O-])c2)c1)c1ccc(F)cc1`, the cell number change was -15.2%. Also, under setting [2], the AC50 was 0.326 µM [rising, single point].
On to `CC(C)OCCCN1C(=O)c2ccccc2C1C(=O)NC1CCCCC1` (stereo not drawn), for which the cell number change is -15.2%. Moreover, the AC50 under setting [2] was 0.651 µM [rising, full curve].
With `Cc1cccc(NC(=O)C2(c3ccccc3)CC2(Cl)Cl)c1` (stereo not drawn), the cell number change stood at 7.7%. Under setting [2], the AC50 is 25.9 µM [rising, single point].
As for `COc1ccc(OC)c(C(c2c(O)nc(SC)[nH]c2=O)c2c(O)nc(SC)[nH]c2=O)c1`, the cell number change was 4.23%. Further, under setting [2], the AC50 was 0.13 µM [rising, full curve, poor fit].
Regarding `Cn1c(C(=O)N2CCCC(C(=O)NCc3ccc4c(c3)OCO4)C2)cc2sccc21` (stereo not drawn), the cell number change is -36.6%. Also, the AC50 under setting [1] is 29.1 µM [falling, single point]. For the same compound, the AC50 under setting [2] was 20.6 µM [falling, single point].
As to `Cc1ccc2nc(NC(=O)CN(C)S(=O)(=O)c3ccc(Br)s3)sc2c1`, the cell number change is 15.1%. Moreover, under setting [1], the AC50 was 3.66 µM [rising, single point].
As to `CSc1ncccc1C(=O)NC1CC(C)(C)Cc2c1cnn2-c1ccccc1C` (stereo not drawn), the cell number change turned out to be 2.05%. In addition, the AC50 under setting [1] is 6.51 µM [falling, single point]. The AC50 under setting [2] was 0.184 µM [falling, full curve].
Consider `O=C(/C=C/c1cccnc1)c1ccc(NC(=O)c2cccc(Br)c2)cc1`, for which the AC50 under setting [2] is 4.61 µM [falling, single point].
`Cc1ccc(-c2[nH]c(-c3ccc(Cl)cc3)nc2SCC(=O)NCC2CCCO2)cc1` (stereo not drawn): the cell number change was -16.7%.
On to `O=C(O)c1ccccc1C(=O)OCc1c(-c2ccccc2)ncc2ccccc12`, for which the cell number change was -2.07%. The AC50 under setting [1] is 0.164 µM [falling, full curve]. In addition, under setting [2], the AC50 is 0.146 µM [falling, single point].
Take `C/C(Cl)=C\Cn1c(=O)c2c(nc3n2CCS3)n(C)c1=O`: the cell number change is -19.5%.
In the case of `CC(=O)Nc1ccc(S(=O)(=O)n2cnc(C)c2)cc1`, the cell number change was -0.759%.
As to `O=c1[nH]c(C2CCN(S(=O)(=O)c3ccc(S(=O)(=O)NC4CC4)cc3)CC2)nc2c1nnn2Cc1ccccc1`, the cell number change is -8.97%.
`CCC(C)c1ccc(OCCCCN2CCOCC2)cc1` (stereo not drawn): the cell number change worked out at 109%. For the same compound, the AC50 under setting [1] was 20.6 µM [rising, single point].
On to `CN(C)c1ccc(C(=S)N2CCN(S(=O)(=O)c3ccccc3)CC2)cc1`, for which the cell number change is -9.17%. The AC50 under setting [2] was 29.1 µM [rising, single point].
In the case of `Cn1c(Cl)c(/C=N/OC(=O)C2CC2)c2ccccc21`, the AC50 under setting [2] is 0.794 µM [rising, single point].
`COc1ccc(OC)c(S(=O)(=O)N(C)CC(=O)N2CCOCC2)c1`: the cell number change is 3.47%. Moreover, the AC50 under setting [2] is 29.1 µM [rising, single point].
Take `COCCNC(=O)c1ccc(CS(=O)(=O)c2ccc(Cl)cc2)o1`: the cell number change is -35.4%. For the same compound, the AC50 under setting [1] was 29.1 µM [falling, single point].
For the compound `CC(=O)NC(Cc1c[nH]c2ccccc12)C(=O)N1CCc2ccccc2C1` (stereo not drawn), the cell number change was 33.3%. Besides, the AC50 under setting [1] was 18.4 µM [rising, single point]. In addition, the AC50 under setting [2] was 29.1 µM [rising, single point].
On to `Cc1ccc([N+](=O)[O-])cc1N=C(c1cccc([N+](=O)[O-])c1)N1CCOCC1`, for which the cell number change is -31%. For the same compound, the AC50 under setting [1] is 0.184 µM [falling, full curve, poor fit]. Also, under setting [2], the half-maximal activity concentration (AC50) is 29.1 µM [falling, single point].
`COCc1[nH][nH]c(=O)c1C=Nc1ccc(OC(F)(F)F)cc1`: the cell number change worked out at 13.8%.
`COc1ccc(CCNC(=O)C2CCN(C(=O)c3ccccc3)CC2)cc1`: the cell number change was -7.14%.
Consider `O=C(N/N=C/c1ccc(O)cc1O)c1ccncc1`, for which the cell number change is 87.3%. Moreover, under setting [1], the AC50 is 3.26 µM [rising, full curve]. For the same compound, the AC50 under setting [2] was 6.51 µM [rising, partial curve].
Take `COCCN(C(=O)COC(=O)CCc1ccccc1)c1c(N)n(Cc2ccccc2)c(=O)[nH]c1=O`: the cell number change is -13.1%. The AC50 under setting [2] was 23.1 µM [rising, partial curve].
For the compound `FC(F)(F)c1ccc(Oc2ccc3c(C(F)(F)F)cc(C(F)(F)F)nc3n2)cc1`, the cell number change was -7.16%.
`Cc1ccc(S(=O)(=O)N/N=C/c2cccc3c2OCCO3)cc1`: the cell number change was found to be 10.3%. Besides, the AC50 under setting [1] was 4.61 µM [falling, single point].
Consider `Cc1noc(/C=C/N(C)C)c1S(=O)(=O)N1CCCC(C(=O)Nc2ccccc2F)C1` (stereo not drawn), for which the cell number change is -42.4%. Moreover, the AC50 under setting [1] is 2.31 µM [falling, partial curve]. Further, the AC50 under setting [2] is 20.6 µM [falling, single point].
`CC(C)(CNC(=O)C1c2ccccc2-c2ccccc21)N1CCOCC1`: the cell number change was determined as 9.52%.
Take `COc1cc2cc(C(c3nnnn3C(C)(C)C)N3CCc4ccccc4C3)c(=O)[nH]c2cc1OC` (stereo not drawn): the cell number change was 17.3%. Besides, under setting [2], the AC50 is 7.31 µM [rising, partial curve].
